Results are given in words; binding and its absence hold for the method and conditions named. Binding can be weak; no strength is given. For some of these results: Where a sequence is shown, tags or fusion partners need not be part of it. For some of these results: Binding seen in cells or lysates may run through a third protein.

Protein sequences, listed by entry. Tags and fused reporters are not part of them. Lines headed by an entry give the natural chain unless they say otherwise; changes in a name come on top.
UniProt O94542: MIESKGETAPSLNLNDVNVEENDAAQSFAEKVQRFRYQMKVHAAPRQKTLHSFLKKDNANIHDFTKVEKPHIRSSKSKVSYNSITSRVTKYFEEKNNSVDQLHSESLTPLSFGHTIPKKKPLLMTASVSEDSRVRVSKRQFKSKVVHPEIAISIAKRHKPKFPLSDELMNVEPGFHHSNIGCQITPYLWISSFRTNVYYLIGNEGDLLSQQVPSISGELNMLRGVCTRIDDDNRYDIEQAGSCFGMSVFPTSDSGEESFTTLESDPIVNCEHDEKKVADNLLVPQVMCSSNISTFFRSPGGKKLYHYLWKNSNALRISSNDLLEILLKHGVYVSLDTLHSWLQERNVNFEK

Experiment [1] deals with T1, Cdc24-YFH co-overexpressed with Dna2 and purified from fission yeast (S. pombe) (UniProt O75004).
T1 sequence: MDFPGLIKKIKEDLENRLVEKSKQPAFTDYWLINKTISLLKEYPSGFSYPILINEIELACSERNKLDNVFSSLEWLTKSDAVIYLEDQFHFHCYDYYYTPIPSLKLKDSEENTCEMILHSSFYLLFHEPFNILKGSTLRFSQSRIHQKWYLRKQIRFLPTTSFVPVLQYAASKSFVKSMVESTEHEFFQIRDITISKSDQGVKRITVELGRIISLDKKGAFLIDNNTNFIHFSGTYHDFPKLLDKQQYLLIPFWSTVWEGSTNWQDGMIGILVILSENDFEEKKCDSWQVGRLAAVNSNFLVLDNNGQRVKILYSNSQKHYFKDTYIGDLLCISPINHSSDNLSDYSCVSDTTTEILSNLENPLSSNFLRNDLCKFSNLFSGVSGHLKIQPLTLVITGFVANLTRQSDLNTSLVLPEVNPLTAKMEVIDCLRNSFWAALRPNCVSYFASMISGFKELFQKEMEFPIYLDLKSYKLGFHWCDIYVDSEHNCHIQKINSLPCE
Briefly: cross-linking; CXMS: Dna2-Cdc24-Pxd1(227–351) complex formed on anti-FLAG beads and eluted with 3× FLAG peptide; about 12 µg cross-linked by BS3 or DSS (0.5 mM, 1 h, room temperature), trypsin, LC-MS/MS, pLink; both purified.

For experiment [2], the target named is T2, Cdc24, yeast two-hybrid fusion (S. pombe) (UniProt O75004).
T2 sequence: T1 sequence
Briefly: two-hybrid; Matchmaker system (Clontech), modified pGBKT7 bait and modified pGAD GH prey in AH109; growth on quadruple dropout medium (SD/-Ade/-His/-Leu/-Trp).

In experiment [3] the target is Pxd1, yeast two-hybrid fusion (S. pombe). The experiment is described as above.
Experiment [4] concerns the target Full-length Pxd1 fused with the TAP tag (S. pombe). Briefly: co-IP; fission yeast lysate in lysis buffer A (50 mM Tris-HCl pH 8.0, 0.1 M NaCl, 10% glycerol, 0.05% NP-40); TAP-tagged protein immunoprecipitated with IgG Sepharose beads, Myc-tagged partner by immunoblotting; wild-type background. A general note: Immunoblotting shows a protein as a band on a membrane.

Consider “Pxd1(227–351) purified from E. coli (from UniProt O94542) (domain or fragment)”, for which the binding entry in experiment [1] is listed as “binds”. Regarding “Pxd1, yeast two-hybrid fusion (S. pombe)”, the binding result in experiment [2] is recorded as “binds”.

B1: Swi10, yeast two-hybrid fusion (protein, UniProt Q06182 1-252)
chain: MSDIDDEEFEQLAVSALEEVEKKAGFAQQPTPQKVSRVTAHSILVNPRQKGNPLLPHVRNVPWEYTDIVPDFVMGTGICSLFLSLKYHHLHPEYIYSRISKLGKSYNLRILLILVDVENHQASIQELVKTSIVNQYTLILAWSSEEAARYLETYKAYENMSPALIMEKPSTDYLSQVQSFLTSIRGINKSDSLSLLSKFGSLERALVASRDELEQLEGWGPTKVNRFLEAVQQPFMSHSTIKRPEAINLKQT
Consider B1, for which, in experiment [3], the binding entry is given as “no binding”.

B2: Myc-tagged Rad16 (protein, UniProt P36617 1-877)
chain: METKVHLPLAYQQQVFNELIEEDGLCVIAPGLSLLQIAANVLSYFAVPGSLLLLVGANVDDIELIQHEMESHLEKKLITVNTETMSVDKREKSYLEGGIFAITSRILVMDLLTKIIPTEKITGIVLLHADRVVSTGTVAFIMRLYRETNKTGFIKAFSDDPEQFLMGINALSHCLRCLFLRHVFIYPRFHVVVAESLEKSPANVVELNVNLSDSQKTIQSCLLTCIESTMRELRRLNSAYLDMEDWNIESALHRSFDVIVRRQLDSVWHRVSPKTKQLVGDLSTLKFLLSALVCYDCVSFLKLLDTLVLSVNVSSYPSNAQPSPWLMLDAANKMIRVARDRVYKESEGPNMDAIPILEEQPKWSVLQDVLNEVCHETMLADTDAETSNNSIMIMCADERTCLQLRDYLSTVTYDNKDSLKNMNSKLVDYFQWREQYRKMSKSIKKPEPSKEREASNTTSRKGVPPSKRRRVRGGNNATSRTTSDNTDANDSFSRDLRLEKILLSHLSKRYEPEVGNDAFEVIDDFNSIYIYSYNGERDELVLNNLRPRYVIMFDSDPNFIRRVEVYKATYPKRSLRVYFMYYGGSIEEQKYLFSVRREKDSFSRLIKERSNMAIVLTADSERFESQESKFLRNVNTRIAGGGQLSITNEKPRVIVDLREFRSSLPSILHGNNFSVIPCQLLVGDYILSPKICVERKSIRDLIQSLSNGRLYSQCEAMTEYYEIPVLLIEFEQHQSFTSPPFSDLSSEIGKNDVQSKLVLLTLSFPNLRIVWSSSAYVTSIIFQDLKAMEQEPDPASAASIGLEAGQDSTNTYNQAPLDLLMGLPYITMKNYRNVFYGGVKDIQEASETSERKWSELIGPEAGRRLYSFFRKQLKDYE
Regarding B2, the binding entry in experiment [4] is given as “binds”.

B3: Rad16, yeast two-hybrid fusion (protein, UniProt P36617 1-877)
chain: B2 chain
With B3, in experiment [3], the binding result is given as “binds”.

B4: Dna2, yeast two-hybrid fusion (protein, UniProt Q9URU2 1-1397)
chain: MFNDQSKTTSSVKGICATTDNNHGNLKKTNSTPFRKNYLLNGRTKLKLENFAYNASTEISSPKISEKKHSSLPIKRKNTFNESSTSFSPFTKAHKEITDDLKPDKSFTRKSDLNSQDMPVCFQETSKDLCRSSSTQHLLDHQTTDSTIIDMKPVSTNSKSDVFTLYTDETVLLRRCASDNKPLINNNLSSSNVSENQSRSFGSYDEVKNQGNNLHKVPSLVSIIRNARSSEQSRIAANSSCLLKGSDTEIDEDDFALEAEDLAALDSLERQYSQLPNSTVTASAKDIEKTAKVNHVGGDLQSYCSATKASDATINEEPVNLALDKACNSLPDINSDFIDDWDDSCDGCTPGELCEFSSEYTVLEVHEDFIFHEGNHFRQLKLILEANDILHQLFLRGDWTETSIFVGDSIRVEATFDKDNTAIVDNDKGLIIIHPKILMSATAVASSFPCLRKAVISDRVGIYGPPTKAMVTGNILHDFFQHALYRGIDALENVDINLETSIKTYISDIYFADLSLDEIREELDARLPLLKSIVERYLISKKNDNNNESIHISRLLDIEESIWSPRFGLKGNIDATVEVVLTEKPESSSTLTLPLELKTGRYVDNISHFAQSLLYTLLISDRYGINTNQALLCYLENSTIKNLVASNSQLRGLIMTRNSLAQHNFRRSLPEMISNRKICDHCSLVSECLFFQKMSDKGVANSNGLTESWNEWMREVKDEDLEFYKKWEKLLNQEERLLLLKRGDVLTFDTEELEAYGKTLYPLYITKEDIVCLEIDDRVFHYKFAFLNDNGYPRNFLHSGFSVGERVFISDEHGHWSLAKGHIVHIQDSCIEVRTRHRLHIPWLKMPNFDFKKNQVFFGNYEDSKLSFIGSNHTRYRIDKDEFSSGIASIRGTLMSSVLPDAPLIIRDMIIRLKPPKFCNSALIDPEFLKCLNEDQITALKKCHAAEHYSLILGMPGTGKTTTISSLIRSLLAKKKKILLTSFTHLAVDNILIKLKGCDSTIVRLGSPHKIHPLVKEFCLTEGTTFDDLASLKHFYEDPQIVACSSLGVYHSIFNKRKFDYCIIDEASQIPLPICLGPLQLAEKFVLVGDHYQLPPLVKNSRTSKDGLSLSLFKLLSEKHPEAVTTLRLQYRMNEDINSLSSELIYGGNLVCGSKTISQKKLILPKAHLSDGLPDSSSSLHWVNKLINPSHSVIFFNTDDILGVESKTNNILENHTEAFLIEQAVSSFLERGVKQSSIGIISIYKSQVELLSKNLKSFTEIEINTVDRYQGRDKDIILISFVRSNSKNLVGELLRDWHRLNVALSRAKVKCIMFGSLSTLSSSNIVSHLLKLLEKNKWIFTLNENDIATKFDENSSPIKDCSQVATTNNAKVIIRKNQRFFNSDNLCEKAILPQLEF
With B4, in experiment [3], the binding entry was “binds”.

B5: Myc-tagged Cdc24 (protein, UniProt O75004 1-501)
chain: T1 sequence
Regarding B5, in experiment [4], the binding result is on record as “binds”.

The values above are taken from paper PMC4159138, “Fission Yeast Pxd1 Promotes Proper DNA Repair by Activating Rad16^XPF and Inhibiting Dna2” (PLoS Biology, 2014).
